# Laboratory results: the supplement of paper PMC10849652
# Protein sequences, listed by entry. Tags and fused reporters are not part of them. Lines headed by an entry give the natural chain unless they say otherwise; changes in a name come on top.
# UniProt Q8N9U0: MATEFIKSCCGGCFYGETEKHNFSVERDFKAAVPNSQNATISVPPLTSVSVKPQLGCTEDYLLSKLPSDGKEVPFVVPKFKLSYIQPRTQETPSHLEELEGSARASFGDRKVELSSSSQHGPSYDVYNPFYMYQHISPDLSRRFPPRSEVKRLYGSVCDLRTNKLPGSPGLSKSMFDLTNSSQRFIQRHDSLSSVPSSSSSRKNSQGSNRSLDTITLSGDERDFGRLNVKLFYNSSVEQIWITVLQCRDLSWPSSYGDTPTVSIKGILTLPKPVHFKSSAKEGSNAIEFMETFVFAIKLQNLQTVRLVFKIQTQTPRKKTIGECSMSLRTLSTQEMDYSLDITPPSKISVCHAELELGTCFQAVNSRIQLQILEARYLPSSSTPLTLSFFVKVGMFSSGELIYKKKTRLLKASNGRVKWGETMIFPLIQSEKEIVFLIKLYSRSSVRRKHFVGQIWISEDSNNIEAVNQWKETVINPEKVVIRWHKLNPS
# UniProt Q13428: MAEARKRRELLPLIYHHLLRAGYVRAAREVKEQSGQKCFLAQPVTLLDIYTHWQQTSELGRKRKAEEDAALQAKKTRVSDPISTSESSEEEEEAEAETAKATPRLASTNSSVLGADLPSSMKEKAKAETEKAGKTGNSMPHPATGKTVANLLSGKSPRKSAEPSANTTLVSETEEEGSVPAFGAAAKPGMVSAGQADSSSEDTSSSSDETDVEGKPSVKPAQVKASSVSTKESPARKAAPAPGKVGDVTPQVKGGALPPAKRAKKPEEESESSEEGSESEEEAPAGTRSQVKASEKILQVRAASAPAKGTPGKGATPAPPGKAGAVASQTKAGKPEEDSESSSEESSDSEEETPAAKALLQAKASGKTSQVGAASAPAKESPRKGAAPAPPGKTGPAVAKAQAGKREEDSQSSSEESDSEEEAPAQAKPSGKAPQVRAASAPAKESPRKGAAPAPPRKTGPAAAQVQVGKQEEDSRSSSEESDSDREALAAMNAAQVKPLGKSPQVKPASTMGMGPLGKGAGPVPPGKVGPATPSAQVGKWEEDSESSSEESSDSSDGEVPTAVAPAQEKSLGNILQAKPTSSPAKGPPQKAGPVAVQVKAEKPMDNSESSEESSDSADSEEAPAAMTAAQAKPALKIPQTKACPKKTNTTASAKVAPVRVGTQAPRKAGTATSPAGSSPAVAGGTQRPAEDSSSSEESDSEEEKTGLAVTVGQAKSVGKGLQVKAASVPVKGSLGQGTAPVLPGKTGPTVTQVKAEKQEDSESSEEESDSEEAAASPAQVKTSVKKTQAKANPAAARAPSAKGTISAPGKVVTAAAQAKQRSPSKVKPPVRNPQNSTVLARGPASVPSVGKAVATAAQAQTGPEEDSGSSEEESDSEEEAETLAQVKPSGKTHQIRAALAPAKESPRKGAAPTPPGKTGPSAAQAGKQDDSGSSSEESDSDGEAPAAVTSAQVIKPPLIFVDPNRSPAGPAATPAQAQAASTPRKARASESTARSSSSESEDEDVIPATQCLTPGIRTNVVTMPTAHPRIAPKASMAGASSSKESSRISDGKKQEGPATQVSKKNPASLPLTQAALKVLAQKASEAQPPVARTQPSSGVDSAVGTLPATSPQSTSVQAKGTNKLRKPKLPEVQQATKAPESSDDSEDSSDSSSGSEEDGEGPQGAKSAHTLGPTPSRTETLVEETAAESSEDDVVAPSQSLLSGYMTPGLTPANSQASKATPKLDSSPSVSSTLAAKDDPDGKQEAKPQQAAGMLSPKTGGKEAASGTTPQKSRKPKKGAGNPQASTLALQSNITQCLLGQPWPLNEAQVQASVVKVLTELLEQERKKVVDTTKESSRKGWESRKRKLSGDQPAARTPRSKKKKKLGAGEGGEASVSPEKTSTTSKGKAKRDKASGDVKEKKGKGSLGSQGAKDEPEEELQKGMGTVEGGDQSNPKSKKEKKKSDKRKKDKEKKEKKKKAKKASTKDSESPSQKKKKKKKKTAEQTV
# UniProt Q8IYN2: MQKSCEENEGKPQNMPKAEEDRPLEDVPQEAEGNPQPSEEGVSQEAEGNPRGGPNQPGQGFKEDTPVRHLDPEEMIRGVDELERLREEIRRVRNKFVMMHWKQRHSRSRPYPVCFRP
# UniProt Q9HCD6: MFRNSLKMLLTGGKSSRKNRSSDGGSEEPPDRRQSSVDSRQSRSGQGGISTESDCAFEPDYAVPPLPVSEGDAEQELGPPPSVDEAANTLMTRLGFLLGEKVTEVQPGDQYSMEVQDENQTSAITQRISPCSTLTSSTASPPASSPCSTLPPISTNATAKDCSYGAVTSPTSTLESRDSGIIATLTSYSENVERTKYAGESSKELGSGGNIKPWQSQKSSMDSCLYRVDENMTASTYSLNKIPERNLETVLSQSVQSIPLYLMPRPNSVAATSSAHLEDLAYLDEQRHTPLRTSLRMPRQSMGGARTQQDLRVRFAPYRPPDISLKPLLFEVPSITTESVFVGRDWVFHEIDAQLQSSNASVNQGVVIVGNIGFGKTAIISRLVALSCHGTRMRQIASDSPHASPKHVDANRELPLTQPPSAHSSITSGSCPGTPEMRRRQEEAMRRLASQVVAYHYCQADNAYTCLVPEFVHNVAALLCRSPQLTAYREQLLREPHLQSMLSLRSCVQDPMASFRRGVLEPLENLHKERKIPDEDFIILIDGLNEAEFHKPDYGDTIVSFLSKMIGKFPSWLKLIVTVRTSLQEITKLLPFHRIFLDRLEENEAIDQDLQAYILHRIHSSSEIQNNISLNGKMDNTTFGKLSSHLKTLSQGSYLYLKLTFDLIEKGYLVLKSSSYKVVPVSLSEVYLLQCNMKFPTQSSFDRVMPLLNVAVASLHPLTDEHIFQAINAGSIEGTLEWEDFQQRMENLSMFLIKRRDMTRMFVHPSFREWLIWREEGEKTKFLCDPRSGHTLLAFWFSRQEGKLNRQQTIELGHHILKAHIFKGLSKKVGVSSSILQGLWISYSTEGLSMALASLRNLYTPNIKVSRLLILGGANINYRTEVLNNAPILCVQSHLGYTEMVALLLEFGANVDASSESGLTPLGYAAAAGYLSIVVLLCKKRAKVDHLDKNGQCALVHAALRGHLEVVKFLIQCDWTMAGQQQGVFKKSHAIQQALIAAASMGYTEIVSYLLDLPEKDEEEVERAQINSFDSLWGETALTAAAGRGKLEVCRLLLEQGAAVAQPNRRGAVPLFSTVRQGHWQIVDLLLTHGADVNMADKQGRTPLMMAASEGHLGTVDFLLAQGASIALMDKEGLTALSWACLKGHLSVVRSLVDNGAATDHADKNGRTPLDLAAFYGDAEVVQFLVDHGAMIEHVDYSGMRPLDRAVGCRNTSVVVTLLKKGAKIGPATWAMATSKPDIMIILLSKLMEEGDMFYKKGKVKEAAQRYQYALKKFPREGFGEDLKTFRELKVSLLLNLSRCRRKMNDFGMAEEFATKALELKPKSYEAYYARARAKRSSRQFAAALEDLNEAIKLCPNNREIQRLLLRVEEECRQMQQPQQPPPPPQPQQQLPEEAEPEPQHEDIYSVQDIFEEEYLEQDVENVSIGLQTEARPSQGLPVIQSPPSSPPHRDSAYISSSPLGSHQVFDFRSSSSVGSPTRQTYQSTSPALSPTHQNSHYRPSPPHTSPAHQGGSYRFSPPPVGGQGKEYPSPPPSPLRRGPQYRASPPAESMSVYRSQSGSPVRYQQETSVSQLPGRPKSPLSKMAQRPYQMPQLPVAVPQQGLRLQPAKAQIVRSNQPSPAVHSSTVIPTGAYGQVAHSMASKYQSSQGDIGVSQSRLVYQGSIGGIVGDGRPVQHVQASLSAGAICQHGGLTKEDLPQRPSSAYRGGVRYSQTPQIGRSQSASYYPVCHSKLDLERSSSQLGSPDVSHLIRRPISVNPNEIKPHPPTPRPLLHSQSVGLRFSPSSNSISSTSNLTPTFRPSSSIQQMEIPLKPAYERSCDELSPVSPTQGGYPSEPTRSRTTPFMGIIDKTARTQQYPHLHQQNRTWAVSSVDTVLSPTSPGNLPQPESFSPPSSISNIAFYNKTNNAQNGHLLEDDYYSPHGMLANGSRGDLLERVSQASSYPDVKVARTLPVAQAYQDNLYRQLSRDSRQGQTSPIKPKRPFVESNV
# UniProt P10646, whole entry, looked up: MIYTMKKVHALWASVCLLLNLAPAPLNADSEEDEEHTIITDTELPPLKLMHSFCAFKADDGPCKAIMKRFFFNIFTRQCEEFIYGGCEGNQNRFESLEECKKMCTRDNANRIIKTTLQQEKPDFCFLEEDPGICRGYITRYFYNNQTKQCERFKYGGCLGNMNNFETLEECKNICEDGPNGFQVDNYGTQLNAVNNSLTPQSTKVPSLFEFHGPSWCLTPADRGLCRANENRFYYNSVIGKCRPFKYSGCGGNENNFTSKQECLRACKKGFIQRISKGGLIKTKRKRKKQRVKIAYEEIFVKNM
# UniProt Q86SX3: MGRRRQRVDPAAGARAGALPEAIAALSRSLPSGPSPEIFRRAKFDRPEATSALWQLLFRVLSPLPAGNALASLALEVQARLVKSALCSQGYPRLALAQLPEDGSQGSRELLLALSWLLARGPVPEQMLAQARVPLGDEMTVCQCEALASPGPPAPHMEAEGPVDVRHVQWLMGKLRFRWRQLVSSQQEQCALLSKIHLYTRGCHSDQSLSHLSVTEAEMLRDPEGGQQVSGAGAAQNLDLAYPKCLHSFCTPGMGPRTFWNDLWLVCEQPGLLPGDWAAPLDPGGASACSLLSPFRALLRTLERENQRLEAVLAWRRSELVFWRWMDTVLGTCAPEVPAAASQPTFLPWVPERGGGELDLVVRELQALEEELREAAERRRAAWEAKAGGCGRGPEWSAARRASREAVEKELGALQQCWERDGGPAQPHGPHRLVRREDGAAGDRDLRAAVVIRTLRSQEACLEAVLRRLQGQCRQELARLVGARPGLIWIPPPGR
# UniProt Q9Y4I5: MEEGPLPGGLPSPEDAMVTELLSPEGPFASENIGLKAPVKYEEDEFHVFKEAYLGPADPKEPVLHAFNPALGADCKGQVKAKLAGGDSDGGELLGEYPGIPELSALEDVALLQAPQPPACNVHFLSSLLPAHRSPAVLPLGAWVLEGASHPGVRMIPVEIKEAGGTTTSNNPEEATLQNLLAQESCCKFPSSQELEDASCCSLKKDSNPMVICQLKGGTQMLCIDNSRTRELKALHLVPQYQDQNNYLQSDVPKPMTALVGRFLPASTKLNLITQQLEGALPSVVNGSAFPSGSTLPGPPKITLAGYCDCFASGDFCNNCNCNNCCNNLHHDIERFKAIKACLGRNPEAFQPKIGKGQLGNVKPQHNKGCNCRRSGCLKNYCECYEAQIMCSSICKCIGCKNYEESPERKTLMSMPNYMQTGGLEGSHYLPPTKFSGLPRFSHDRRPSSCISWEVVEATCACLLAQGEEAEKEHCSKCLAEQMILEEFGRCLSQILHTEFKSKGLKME
# UniProt Q8TEA7: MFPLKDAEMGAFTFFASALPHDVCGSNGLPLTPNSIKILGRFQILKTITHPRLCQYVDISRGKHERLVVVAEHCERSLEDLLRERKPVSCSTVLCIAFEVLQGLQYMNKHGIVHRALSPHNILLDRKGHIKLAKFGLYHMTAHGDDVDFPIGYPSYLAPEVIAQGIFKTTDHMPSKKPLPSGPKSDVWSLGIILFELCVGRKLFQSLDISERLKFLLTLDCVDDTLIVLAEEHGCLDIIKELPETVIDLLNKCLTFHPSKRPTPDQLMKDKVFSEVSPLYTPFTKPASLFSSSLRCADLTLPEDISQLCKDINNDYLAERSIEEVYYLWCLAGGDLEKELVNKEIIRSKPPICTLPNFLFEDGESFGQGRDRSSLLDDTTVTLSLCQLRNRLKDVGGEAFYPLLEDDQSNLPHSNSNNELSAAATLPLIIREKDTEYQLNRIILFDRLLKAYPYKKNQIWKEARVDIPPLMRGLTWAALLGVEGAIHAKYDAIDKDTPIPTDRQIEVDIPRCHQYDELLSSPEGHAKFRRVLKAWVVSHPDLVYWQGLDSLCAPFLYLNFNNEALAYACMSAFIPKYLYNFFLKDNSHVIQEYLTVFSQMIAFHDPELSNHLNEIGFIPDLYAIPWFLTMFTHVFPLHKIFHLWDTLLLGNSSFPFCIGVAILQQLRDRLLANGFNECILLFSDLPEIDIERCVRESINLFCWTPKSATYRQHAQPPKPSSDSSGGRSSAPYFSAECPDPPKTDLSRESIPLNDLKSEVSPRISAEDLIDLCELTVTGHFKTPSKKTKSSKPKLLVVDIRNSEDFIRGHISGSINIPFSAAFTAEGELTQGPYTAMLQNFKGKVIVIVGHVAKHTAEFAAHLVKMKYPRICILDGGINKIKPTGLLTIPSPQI
# The list shows a part of the results.
# What was measured:
# Assay in all cases: log2 fold change, soluble protein after heating vs DMSO (PISA); higher = thermal stabilisation; K562 lysate, 10 uM; active = over 0.2 and 3.5 SD of the protein, either way, in both replicates (recomputed)
# [1] = compound: CC1=C2C(=CC=C1)N=C(N(C2=O)C3=CC=CC=C3C)CN4C=NC5=C(N=CN=C54)N
# Outline: (§1)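 Pellets of K562 cells were dounce-homogenised in PBS pH 7.4 with 1 mM MgCl2, and the crude extract was held at 1 mg/mL protein for a 30 min treatment with 10 μM compound. Aliquots were heated for 3 min over 48°C-58°C and pooled before NP-40 was added to 0.5% at 4°C. The supernatant from 21,000xg for 90 min was quantified by TMTpro 16plex LC-MS/MS with channel sums equalised. Values are reported from duplicates as log-two fold change in thermal stability relative to solvent controls.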
# [2] = compound: c1ccc([C@@H]2C[C@H]2NC2CCNCC2)cc1
# Outline: as §1
# [3] = compound: Cc1sc2c(c1C)C(c1ccc(Cl)cc1)=N[C@@H](CC(=O)OC(C)(C)C)c1nnc(C)n1-2
# Outline: as §1
# [4] = compound: C1=CC=C(C=C1)[C@H](COC2=CC3=C(C=C2)NC(=O)N3)NC(=O)C4=CC=CN(C4=O)CC5=CC(=C(C=C5)F)F
# Outline: as §1
# [5] = compound: CC1=C(SC2=C1C(=N[C@H](C3=NN=C(N32)C)CC(=O)N)C4=CC=C(C=C4)Cl)C
# Outline: as §1
target,measurement,setting,value
TC2N (UniProt Q8N9U0),log2 fold change,[1],inactive: -0.099
same,log2 fold change,[2],inactive: 0.088
TFEB (UniProt P19484),log2 fold change,[1],inactive: 0.018
"TAF8, A0A0A0MRR3",log2 fold change,[3],inactive: -0.04
TEAD3 (UniProt Q99594),log2 fold change,[3],inactive: -0.002
TCOF1 isoform 3 (UniProt Q13428),log2 fold change,[4],inactive: -0.075
same,log2 fold change,[5],inactive: 0.101
same,log2 fold change,[2],inactive: 0.036
TENM4 (UniProt Q6N022),log2 fold change,[4],inactive: -0.057
same,log2 fold change,[5],inactive: 0.174
same,log2 fold change,[2],inactive: 0.137
TCEAL8 (UniProt Q8IYN2),log2 fold change,[1],inactive: 0.025
same,log2 fold change,[3],inactive: -0.012
TANC2 isoform 2 (UniProt Q9HCD6),log2 fold change,[3],inactive: 0.093
same,log2 fold change,[2],inactive: 0.081
TFPI isoform 2 (UniProt P10646),log2 fold change,[1],inactive: 0.048
TEDC1 (UniProt Q86SX3),log2 fold change,[3],inactive: 0.058
TCTN3 (UniProt Q6NUS6),log2 fold change,[2],inactive: -0.006
TCF20 (UniProt Q9UGU0),log2 fold change,[4],inactive: 0.022
same,log2 fold change,[5],inactive: -0.063
same,log2 fold change,[3],inactive: -0.263
same,log2 fold change,[2],inactive: -0.059
TESMIN (UniProt Q9Y4I5),log2 fold change,[1],inactive: 0.083
same,log2 fold change,[3],inactive: -0.301
same,log2 fold change,[2],inactive: 0.04
TBCK (UniProt Q8TEA7),log2 fold change,[4],inactive: 0.057
same,log2 fold change,[5],inactive: 0.062
same,log2 fold change,[3],inactive: -0.005
same,log2 fold change,[2],inactive: -0.126
TDRD15 (UniProt B5MCY1),log2 fold change,[1],inactive: 0.038
same,log2 fold change,[3],inactive: -0.124
TEDC2 (UniProt Q7L2K0),log2 fold change,[2],inactive: 0.039
TBXA2R (UniProt P21731),log2 fold change,[4],inactive: -0.089
same,log2 fold change,[5],inactive: 0.02
same,log2 fold change,[2],inactive: 0.085

# An excerpt of these results, with tabs.
target	measurement	setting	value
TENM4 (UniProt Q6N022)	log2 fold change	[4]	inactive: -0.057
TCEAL8 (UniProt Q8IYN2)	log2 fold change	[1]	inactive: 0.025
